The assay has as its target histone methyltransferase enhancer of zeste homolog 2 (EZH2) (human (endogenous in PC3 and C4-2B-N)) (UniProt Q15910). Description: co-IP; total cell lysates of NE-like cells; anti-EZH2 antibody on PC3 lysate blotted for RACGAP1, anti-RACGAP1 antibody on C4-2B-N lysate blotted for EZH2; protein A/G beads, overnight at 4°C.

Sequences of proteins named here, by UniProt entry; tags and fusion partners are left off.
UniProt Q15910: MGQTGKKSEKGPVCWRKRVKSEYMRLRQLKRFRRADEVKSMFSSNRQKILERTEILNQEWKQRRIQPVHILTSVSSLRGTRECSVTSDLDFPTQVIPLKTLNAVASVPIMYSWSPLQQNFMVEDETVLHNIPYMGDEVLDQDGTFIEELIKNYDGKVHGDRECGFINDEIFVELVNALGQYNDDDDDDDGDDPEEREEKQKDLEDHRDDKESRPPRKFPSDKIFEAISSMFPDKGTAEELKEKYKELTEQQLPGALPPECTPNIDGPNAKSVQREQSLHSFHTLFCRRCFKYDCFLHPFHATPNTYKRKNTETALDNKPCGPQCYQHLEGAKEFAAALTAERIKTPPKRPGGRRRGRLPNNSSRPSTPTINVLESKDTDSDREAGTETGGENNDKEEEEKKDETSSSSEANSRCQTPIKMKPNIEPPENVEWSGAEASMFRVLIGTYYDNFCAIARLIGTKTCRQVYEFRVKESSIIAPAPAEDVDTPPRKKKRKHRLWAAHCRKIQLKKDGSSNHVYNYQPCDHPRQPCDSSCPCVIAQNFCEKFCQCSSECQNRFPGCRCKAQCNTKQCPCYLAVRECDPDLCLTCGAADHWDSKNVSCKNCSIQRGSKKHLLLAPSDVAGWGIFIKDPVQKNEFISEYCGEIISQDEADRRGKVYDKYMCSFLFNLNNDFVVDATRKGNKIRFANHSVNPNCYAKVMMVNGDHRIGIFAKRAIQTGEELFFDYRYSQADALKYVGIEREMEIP

No constants are given. Whether binding was seen depends on the method and setting. In cells and extracts the contact can be indirect. Some binding calls cover weakened binding; strength is not graded here.

B1: RacGTP enzyme activating protein 1 (RACGAP1) (protein, UniProt Q9H0H5 1-632)
chain: MDTMMLNVRNLFEQLVRRVEILSEGNEVQFIQLAKDFEDFRKKWQRTDHELGKYKDLLMKAETERSALDVKLKHARNQVDVEIKRRQRAEADCEKLERQIQLIREMLMCDTSGSIQLSEEQKSALAFLNRGQPSSSNAGNKRLSTIDESGSILSDISFDKTDESLDWDSSLVKTFKLKKREKRRSTSRQFVDGPPGPVKKTRSIGSAVDQGNESIVAKTTVTVPNDGGPIEAVSTIETVPYWTRSRRKTGTLQPWNSDSTLNSRQLEPRTETDSVGTPQSNGGMRLHDFVSKTVIKPESCVPCGKRIKFGKLSLKCRDCRVVSHPECRDRCPLPCIPTLIGTPVKIGEGMLADFVSQTSPMIPSIVVHCVNEIEQRGLTETGLYRISGCDRTVKELKEKFLRVKTVPLLSKVDDIHAICSLLKDFLRNLKEPLLTFRLNRAFMEAAEITDEDNSIAAMYQAVGELPQANRDTLAFLMIHLQRVAQSPHTKMDVANLAKVFGPTIVAHAVPNPDPVTMLQDIKRQPKVVERLLSLPLEYWSQFMMVEQENIDPLHVIENSNAFSTPQTPDIKVSLLGPVTTPEHQLLKTPSSSSLSQRVRSTLTKNTPRFGSKSKSATNLGRQGNFFASPMLK
For B1, the binding result was “binds”.
